Reference: article PMC10163288
The list shows a part of the results.

B1: il2ra_site2_3nfp_normal_mot_HHH_b2_08245_000000023_0001_41_55_H_._HHH_b1_02678_0001_0000100007_0000001_0 (protein)
chain: SSSSDREERVRELLKEAEEALEKGNPEEAKELLQEATHLAYEARDSELFFLIAELLFKVEHSSSS
B2: il2ra_site2_3nfp_normal_mot_HHH_b1_00660_af2_000000090_0001_40_57_H_._HHH_b2_01268_0001_0000100006_0000001_0 (protein)
chain: SSSSSDEEEEEVEELLEEAKRIPDPEERRQVLSRAFAIAAEANDFELFALVSEVREKLQSSSSSS
B3: il2ra_site2_2erj_sap_28_mot_HHH_b1_02757_000000041_0001_41_57_H_._HHH_b1_03663_0001_0000600022_0000001_0_0001 (protein)
chain: SSSSDWLHRLYEILDRLTRLLEEGDEEEVERLLEELQRLAEETDTLSAEQFLEDLERKLRSSSSS
B4: il2ra_site2_2erj_normal_mot_76e6e8f7232a9e65eeaab5ff8ecb4c96_0001_000000231_0001_17_31_H_._HHH_b2_00823_0001_0000500020_0000001_1 (protein)
chain: SSSSSDEAERQVEELLEEAKRIEDPARAYAVLAEAARIALELEDEELEKEVSKLFTEIYSSSSSS
B5: il2ra_site2_2erj_sap_26_mot_HHH_b2_03173_af2_000000175_0001_41_57_H_._HHH_b1_04625_0001_0000100006_0000001_0_0001 (protein)
chain: SSSSDEEEEEVVRLLWEALRAHLEGDEEKAKELIEEAEELAKEANDPKLEEKVKMFASSLSSSSS
B6: il2ra_site1_2b5i_sap_11_mot_f5ff40796168375b462bec8614a1db4a_0001_1_000000138_0001_53_65_H_._HHH_b1_06660_af2_0001_0000100004_0000001_0_0001_af2pred_0001_af2pre … (protein)
chain: SSSSSDREEALELLREANELAKNGDDEEARRVLEQALELAEEGGDPALARLIRAALKLLGSSSSS
B7: il2ra_site1_3nfp_sap_7_mot_HHH_b2_00594_af2_000000186_0001_1_15_H_._HHH_b1_02490_0001_0001200022_0000001_0_0001_af2pred_0001_af2pred_1_swapped (protein)
chain: SSSSSALELLFEAARRLAELLDRGDEEEAERLLEEVARELRELGNEKAARQLERSFERFAKSSSS
B8: il2ra_site1_1z92_sap_21_mot_22370d59370c406a0c205a431f537cfa_0001_000000027_0001_1_14_H_._HHH_b1_05276_0001_0000300011_0000001_1_0001_af2pred_0001_af2pred_1_swa … (protein)
chain: TEVSQLIDEALEKKDPRLLEEAVEILAERFNIPPEKAKRLLEKLIKQIFPPEEQEILEELAKRVP
B9: il2ra_site1_1z92_sap_12_mot_3d499ac7f0d67033d193cd32a1d98c91_0001_af2_000000108_0001_54_65_H_._448c55fe706e6ec391655c6bc0ba6a29_0001_1_af2_0001_0000600020_00000 … (protein)
chain: SSSSSAKEYTLELIRALVRSLKRTGDPKVEERIRFALRNLRLLGDEEAVEEVEELLREAKSSSSS
B10: il2ra_site2_3nfp_normal_mot_HHH_b1_04762_000000120_0001_42_54_H_._HHH_b1_05779_0001_0000700015_0000001_0 (protein)
chain: SSSSSEVEEYIRAALLLVEEALEEGDPEAARRHLEMARKLAEDAKNEELKEEVERLEEELSSSSS
B11: il2ra_site1_2b5i_normal_mot_f5ff40796168375b462bec8614a1db4a_0001_1_000000138_0001_53_65_H_._HHH_b1_08714_af2_0001_0000500020_0000001_0_af2pred_dldesign_0_af2pr … (protein)
chain: SSSSSDDTDVVDVEELIEEAKKIEDENLRKKILILAERVARKAKDPRLEATLAEIRAALSSSSSS
B12: il2ra_site1_2b5i_sap_13_mot_0e5a94e4a5addaac739760efb25f0f5d_0001_000000180_0001_18_32_H_._HHH_b1_02875_0001_0000500014_0000001_0_0001 (protein)
chain: SSSSNREDTRALVRIVWRIRWEFGLDFEDARALAELAAELLDRGVSVEEIEELLRELAEELSSSS
B13: il2ra_site1_2b5i_sap_15_mot_HHH_b1_07314_000000139_0001_1_15_H_._HHH_b1_02094_af2_0001_0000200011_0000001_0_0001 (protein)
chain: SSSSSTQRTFEATLRLLEEALEEIDDEEVRQRVEELLKEAEEKNDIHLLREAMRIAQEYLSSSSS
B14: il2ra_site2_3nfp_sap_18_mot_HHH_b1_00239_000000199_0001_23_39_H_._84ae4b0559e896e2d49ce04ad7058360_0001_0001_0000300014_0000001_0_0001 (protein)
chain: SSSSSDDHEAYERVVKLLKEANHIEDEEEAREVLKEARELAEEFNSEVLRRSVEDVARALSSSSS
B15: il2ra_site1_1z92_normal_mot_3d621733409fa4d2bc95fa1761ba6d8e_0001_af2_000000005_0001_1_12_H_._HHH_b2_07461_af2_0001_0000200018_0000001_0 (protein)
chain: SSSSSEHSRKVFELMQRLNEAVRNGDEEEARELAEELLKLAEESGSKSYARLAEKVLEDLSSSSS
B16: il2ra_site1_2b5i_normal_mot_f5ff40796168375b462bec8614a1db4a_0001_1_000000138_0001_53_65_H_._HHH_b2_07752_0001_0000200011_0000001_0_af2pred_dldesign_0_af2pred (protein)
chain: SSSSENRRELLRELLERARALYEAGEKEEALKLLKMARRLAKKENDEETLKEIEELEKLLSSSSS
B17: il2ra_site2_2erj_sap_19_mot_HHH_b1_01555_af2_000000123_0001_22_39_H_._HHH_b2_02358_af2_0001_0000400024_0000001_0_0001_af2pred_0001_1_af2pred_swapped (protein)
chain: SSSSDEAEELLEEAKRLLEEGNPEEAEKVLREAATLAAELGDEELFREILKLLELVEELGSSSSS
B18: il2ra_site1_1z92_normal_mot_HHH_b1_03515_000000289_0001_1_19_H_._HHH_b1_05176_af2_0001_0000300060_0000001_0_af2pred_0001_af2pred (protein)
chain: SSSSSDTSIKKFVRVIAEIAGLSEEQKEQLEELAEELLEEGYSDREILEILNKLAAELHNSSSSS

Target: il2ra, P01589
Assay: yeast display titration

Row | Binder | apparent Kd
1 | B1 | inactive: no binding seen
2 | B2 | inactive: no binding seen
3 | B3 | inactive: no binding seen
4 | B4 | inactive: no binding seen
5 | B5 | inactive: no binding seen
6 | B6 | inactive: no binding seen
7 | B7 | inactive: no binding seen
8 | B8 | inactive: no binding seen
9 | B9 | inactive: no binding seen
10 | B10 | inactive: no binding seen
11 | B11 | inactive: no binding seen
12 | B12 | inactive: no binding seen
13 | B13 | inactive: no binding seen
14 | B14 | inactive: no binding seen
15 | B15 | inactive: no binding seen
16 | B16 | inactive: no binding seen
17 | B17 | inactive: no binding seen
18 | B18 | inactive: no binding seen

Part of the list above, as tab-separated lines:
Row	Binder	apparent Kd
4	B4	inactive: no binding seen
5	B5	inactive: no binding seen
